Source: patent US10813894B2, “Methods of inhibiting pain” (The Regents of the University of California, priority 2015, dated 2020)
At least one structure is not confirmed: it was looked up by name or label, or the drawing left a doubt.

How the values were obtained:
[1] = tested on: healthy rats; assay: Intraplantar tunicamycin (Tm) induced pain model, mechanical withdrawal; type: in vivo, rat; details: pre-administration i.p. 1 h prior to Tm; celecoxib 30 mg/kg
Procedure: FIGS. 7A-F illustrate that ER stress inducer tunicamycin (Tm) is rapid, intense and selective in generating pain behavior. (A) Tm is administered into the midsection of one hind paw in a volume of 10 μL (20 μg). Mechanical withdrawal of ipsi- and contralateral paws are then monitored over a period of 6 h until the ipsilateral paw measurements returned to baseline values. The withdrawal data are presented as gram force required for inducing a withdrawal reflex response. (B) Decreasing doses of Tm generated less intense allodynia which subsided faster than the highest dose. […] (D) Intraplantar Tm induced pain is reversible with sEH inhibitor (lh prior to Tm, i.p. administration) in a dose dependent manner. (E) Expectedly this pain is reversible with chemical chaperone 4-PBA. The basis for the increase above the baseline threshold in this group is not investigated.

[2] = tested on: ER stress markers; assay: ER stress, apoptosis and autophagy markers after intraplantar Tm (Western blotting); details: Tm 20 μg intraplantar; TPPU 10 mg/kg i.p. 1 h prior; 30 min post Tm; skin and sciatic nerve

`CCC(=O)N1CCC(NC(=O)Nc2ccc(OC(F)(F)F)cc2)CC1` [TPPU, 1-trifluoromethoxyphenyl-3-(1-propionylpiperidin-4-yl) urea] was tested, and the “Reversal of Tm induced sensitivity to mechanical stimuli” value [1] was “reversed” and the “Tm induced ER stress responses incl. markers of apoptosis and autophagy” value [2] was “reversed”.
